According to patent WO2013078377A1:
No constants are given. Whether binding was seen depends on the method and setting. Some entries that bind do so weakly or less than the wild type.

Protein sequences, listed by entry. Tags and fused reporters are not part of them. Lines headed by an entry give the natural chain unless they say otherwise; changes in a name come on top. Chains listed by the source or under a name are the forms on record and can include a tag or linker.
cynomolgus monkey CD98 on a cell line expressing it (I7GH21, form named): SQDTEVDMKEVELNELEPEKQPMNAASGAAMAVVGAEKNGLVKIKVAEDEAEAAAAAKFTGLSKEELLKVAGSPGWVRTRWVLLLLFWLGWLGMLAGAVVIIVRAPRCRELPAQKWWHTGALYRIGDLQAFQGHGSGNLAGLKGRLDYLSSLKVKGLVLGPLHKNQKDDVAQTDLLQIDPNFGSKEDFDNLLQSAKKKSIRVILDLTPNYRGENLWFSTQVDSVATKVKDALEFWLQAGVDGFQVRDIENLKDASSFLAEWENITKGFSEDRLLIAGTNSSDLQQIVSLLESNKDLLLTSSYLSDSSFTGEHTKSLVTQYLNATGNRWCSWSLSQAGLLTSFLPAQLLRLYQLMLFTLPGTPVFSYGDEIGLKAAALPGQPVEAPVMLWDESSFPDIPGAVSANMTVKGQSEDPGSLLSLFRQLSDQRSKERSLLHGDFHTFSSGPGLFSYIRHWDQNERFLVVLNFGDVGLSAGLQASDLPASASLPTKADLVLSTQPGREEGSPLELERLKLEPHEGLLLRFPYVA

Target: cynomolgus monkey CD98 on a cell line expressing it (cynomolgus monkey) (UniProt I7GH21)
Assay: FACS on a cell line expressing cynomolgus monkey CD98

- binding: binds
B1: chimeric anti-CD98 monoclonal antibody 18-2A 7.1 (antibody, V domains shown)
VH: QVQLQQSGAELVRPGTSVKVSCKASGNAFTNYLIEWIKQRPGQGLEWIGVINPGSGITNYNEKFKGKATLTADKSSNTAYMQLSSLSSDDSAVYFCSGSANWFAYWGQGTLVTVSA
VL: DIVMSQSPSSLAVSVGEKVTMSCKSSQSLLYSSNQKNYLAWYQQKPGQSPKLLIYWASTRDSGVPDRFTGSGSGTDFTLTISSVKAEDLAVYYCQRYYGYPWTFGGGTKLEIK
